Data as given in the supplement of paper PMC10849652.
Some of the results follow.

The chains behind the UniProt entries cited, without tags or fusion partners. Where a name states a change or a piece, a line headed by the entry shows the natural chain unless it says otherwise.
UniProt Q96K76: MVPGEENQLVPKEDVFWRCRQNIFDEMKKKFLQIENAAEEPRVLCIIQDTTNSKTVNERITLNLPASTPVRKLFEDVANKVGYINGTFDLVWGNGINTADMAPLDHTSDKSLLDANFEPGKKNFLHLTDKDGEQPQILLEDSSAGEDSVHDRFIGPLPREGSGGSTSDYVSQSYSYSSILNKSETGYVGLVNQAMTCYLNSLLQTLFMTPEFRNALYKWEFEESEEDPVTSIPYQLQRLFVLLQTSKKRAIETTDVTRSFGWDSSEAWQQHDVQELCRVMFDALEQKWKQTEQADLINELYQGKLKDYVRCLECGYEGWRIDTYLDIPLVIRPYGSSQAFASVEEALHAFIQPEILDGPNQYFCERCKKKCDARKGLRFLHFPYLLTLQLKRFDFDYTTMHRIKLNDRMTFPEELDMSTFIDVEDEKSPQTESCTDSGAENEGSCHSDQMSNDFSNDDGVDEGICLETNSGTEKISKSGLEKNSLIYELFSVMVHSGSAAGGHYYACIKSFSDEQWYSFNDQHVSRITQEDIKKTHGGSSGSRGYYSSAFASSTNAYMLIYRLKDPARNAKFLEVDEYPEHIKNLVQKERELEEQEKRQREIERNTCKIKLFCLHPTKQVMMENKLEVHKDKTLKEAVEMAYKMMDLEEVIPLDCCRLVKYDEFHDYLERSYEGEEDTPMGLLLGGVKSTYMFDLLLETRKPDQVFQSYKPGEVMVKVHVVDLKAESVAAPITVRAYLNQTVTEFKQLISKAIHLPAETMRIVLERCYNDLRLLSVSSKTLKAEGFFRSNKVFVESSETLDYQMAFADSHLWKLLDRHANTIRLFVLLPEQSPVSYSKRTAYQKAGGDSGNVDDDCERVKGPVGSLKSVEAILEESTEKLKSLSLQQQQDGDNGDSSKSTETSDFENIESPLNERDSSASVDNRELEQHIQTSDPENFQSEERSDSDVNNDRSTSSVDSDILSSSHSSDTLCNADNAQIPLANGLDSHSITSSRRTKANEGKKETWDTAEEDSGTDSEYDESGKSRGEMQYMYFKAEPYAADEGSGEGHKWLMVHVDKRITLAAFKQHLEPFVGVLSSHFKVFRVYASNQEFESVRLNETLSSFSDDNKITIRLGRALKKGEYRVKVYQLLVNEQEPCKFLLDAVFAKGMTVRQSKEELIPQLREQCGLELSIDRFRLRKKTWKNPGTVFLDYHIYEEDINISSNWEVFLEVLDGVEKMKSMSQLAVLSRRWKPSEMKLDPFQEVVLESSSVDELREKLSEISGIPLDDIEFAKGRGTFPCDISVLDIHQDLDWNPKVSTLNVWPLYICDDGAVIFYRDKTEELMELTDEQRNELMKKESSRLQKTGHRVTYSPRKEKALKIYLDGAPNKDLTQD
UniProt Q9NYH9: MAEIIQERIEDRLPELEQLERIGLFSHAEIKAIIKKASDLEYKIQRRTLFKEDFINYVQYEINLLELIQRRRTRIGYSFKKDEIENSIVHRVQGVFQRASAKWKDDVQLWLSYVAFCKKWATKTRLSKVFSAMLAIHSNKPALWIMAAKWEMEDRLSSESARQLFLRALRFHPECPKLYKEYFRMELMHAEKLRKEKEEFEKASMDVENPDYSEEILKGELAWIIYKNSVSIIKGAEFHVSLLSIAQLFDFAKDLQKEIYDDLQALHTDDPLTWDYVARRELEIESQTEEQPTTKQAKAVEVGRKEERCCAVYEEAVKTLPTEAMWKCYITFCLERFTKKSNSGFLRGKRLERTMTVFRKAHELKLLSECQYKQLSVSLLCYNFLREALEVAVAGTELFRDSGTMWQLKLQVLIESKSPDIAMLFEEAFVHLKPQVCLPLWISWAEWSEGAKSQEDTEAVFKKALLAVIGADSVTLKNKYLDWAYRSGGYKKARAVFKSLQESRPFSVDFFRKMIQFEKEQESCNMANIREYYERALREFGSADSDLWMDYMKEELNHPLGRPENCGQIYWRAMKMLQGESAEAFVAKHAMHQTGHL
UniProt Q15836, whole entry, looked up: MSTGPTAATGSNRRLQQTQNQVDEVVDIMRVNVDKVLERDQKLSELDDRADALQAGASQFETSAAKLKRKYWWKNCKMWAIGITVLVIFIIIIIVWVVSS
UniProt O94874: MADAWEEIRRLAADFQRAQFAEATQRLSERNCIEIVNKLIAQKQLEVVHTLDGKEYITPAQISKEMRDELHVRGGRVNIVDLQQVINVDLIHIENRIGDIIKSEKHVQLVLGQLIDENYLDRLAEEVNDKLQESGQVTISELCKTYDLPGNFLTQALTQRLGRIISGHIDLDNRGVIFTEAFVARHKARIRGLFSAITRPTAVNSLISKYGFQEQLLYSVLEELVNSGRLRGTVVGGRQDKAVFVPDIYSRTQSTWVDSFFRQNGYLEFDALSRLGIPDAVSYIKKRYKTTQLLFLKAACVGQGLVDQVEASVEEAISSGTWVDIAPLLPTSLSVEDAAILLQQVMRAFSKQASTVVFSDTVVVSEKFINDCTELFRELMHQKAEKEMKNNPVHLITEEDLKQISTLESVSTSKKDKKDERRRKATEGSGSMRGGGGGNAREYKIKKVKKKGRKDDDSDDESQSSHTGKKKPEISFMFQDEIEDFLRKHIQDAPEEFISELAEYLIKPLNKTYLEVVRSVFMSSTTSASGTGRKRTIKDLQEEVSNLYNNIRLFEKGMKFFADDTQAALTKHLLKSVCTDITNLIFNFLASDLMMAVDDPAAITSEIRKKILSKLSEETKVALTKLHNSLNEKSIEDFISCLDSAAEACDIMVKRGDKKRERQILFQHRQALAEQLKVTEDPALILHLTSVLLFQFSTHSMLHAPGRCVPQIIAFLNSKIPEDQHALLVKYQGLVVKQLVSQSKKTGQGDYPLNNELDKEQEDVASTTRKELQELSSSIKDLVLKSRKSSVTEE
UniProt A0JNW5: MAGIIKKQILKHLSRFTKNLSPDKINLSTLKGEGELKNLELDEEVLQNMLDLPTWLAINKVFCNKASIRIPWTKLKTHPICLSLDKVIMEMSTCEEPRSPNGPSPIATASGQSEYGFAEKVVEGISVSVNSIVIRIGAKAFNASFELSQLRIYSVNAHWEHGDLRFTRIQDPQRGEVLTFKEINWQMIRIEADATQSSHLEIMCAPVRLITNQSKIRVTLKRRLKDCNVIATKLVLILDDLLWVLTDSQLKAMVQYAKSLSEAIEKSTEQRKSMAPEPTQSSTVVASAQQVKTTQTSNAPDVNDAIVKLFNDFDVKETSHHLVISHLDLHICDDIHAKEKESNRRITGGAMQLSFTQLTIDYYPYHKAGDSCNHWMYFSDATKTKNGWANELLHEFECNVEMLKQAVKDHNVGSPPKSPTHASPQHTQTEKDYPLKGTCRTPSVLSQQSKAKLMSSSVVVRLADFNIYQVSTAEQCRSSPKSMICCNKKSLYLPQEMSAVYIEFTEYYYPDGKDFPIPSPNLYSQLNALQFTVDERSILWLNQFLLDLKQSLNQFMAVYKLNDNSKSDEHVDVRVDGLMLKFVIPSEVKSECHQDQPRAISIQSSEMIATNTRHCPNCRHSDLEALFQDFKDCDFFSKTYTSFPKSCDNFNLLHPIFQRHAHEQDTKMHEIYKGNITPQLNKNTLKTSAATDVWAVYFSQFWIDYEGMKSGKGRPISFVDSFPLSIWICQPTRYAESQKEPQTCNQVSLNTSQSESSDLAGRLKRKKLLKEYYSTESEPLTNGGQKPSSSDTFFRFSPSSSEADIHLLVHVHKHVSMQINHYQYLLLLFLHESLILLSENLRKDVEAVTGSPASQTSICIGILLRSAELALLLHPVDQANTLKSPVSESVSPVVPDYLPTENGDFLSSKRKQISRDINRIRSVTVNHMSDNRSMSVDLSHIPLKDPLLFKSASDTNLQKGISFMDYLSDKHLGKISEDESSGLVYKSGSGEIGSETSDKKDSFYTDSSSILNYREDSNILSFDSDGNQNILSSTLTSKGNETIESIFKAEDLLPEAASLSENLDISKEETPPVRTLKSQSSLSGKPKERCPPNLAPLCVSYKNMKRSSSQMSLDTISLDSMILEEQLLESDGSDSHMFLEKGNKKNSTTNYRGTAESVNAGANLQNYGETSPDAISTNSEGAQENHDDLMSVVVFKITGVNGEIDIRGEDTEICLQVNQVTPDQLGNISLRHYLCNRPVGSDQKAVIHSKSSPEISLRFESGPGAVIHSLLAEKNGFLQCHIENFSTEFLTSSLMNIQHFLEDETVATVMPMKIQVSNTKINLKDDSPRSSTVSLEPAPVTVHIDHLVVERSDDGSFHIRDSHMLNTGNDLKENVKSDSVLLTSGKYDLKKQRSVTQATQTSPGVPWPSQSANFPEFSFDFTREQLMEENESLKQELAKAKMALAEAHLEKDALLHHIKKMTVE
UniProt P54578: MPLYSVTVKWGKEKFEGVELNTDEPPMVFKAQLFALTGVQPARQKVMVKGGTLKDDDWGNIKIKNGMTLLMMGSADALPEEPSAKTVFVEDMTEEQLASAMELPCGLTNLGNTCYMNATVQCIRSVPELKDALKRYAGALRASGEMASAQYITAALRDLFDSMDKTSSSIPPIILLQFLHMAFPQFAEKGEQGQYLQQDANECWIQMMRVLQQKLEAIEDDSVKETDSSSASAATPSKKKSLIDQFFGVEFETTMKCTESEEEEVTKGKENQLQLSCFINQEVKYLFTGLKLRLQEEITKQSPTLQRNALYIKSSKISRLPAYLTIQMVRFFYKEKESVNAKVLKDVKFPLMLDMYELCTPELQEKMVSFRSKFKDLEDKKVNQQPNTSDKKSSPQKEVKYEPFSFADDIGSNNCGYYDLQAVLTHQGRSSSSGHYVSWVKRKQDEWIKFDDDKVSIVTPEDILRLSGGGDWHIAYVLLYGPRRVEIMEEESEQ
UniProt O75379: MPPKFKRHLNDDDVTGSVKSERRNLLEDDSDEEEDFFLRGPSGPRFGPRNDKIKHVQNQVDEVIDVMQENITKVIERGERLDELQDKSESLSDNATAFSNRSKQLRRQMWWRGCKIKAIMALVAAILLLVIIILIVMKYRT
UniProt P18206: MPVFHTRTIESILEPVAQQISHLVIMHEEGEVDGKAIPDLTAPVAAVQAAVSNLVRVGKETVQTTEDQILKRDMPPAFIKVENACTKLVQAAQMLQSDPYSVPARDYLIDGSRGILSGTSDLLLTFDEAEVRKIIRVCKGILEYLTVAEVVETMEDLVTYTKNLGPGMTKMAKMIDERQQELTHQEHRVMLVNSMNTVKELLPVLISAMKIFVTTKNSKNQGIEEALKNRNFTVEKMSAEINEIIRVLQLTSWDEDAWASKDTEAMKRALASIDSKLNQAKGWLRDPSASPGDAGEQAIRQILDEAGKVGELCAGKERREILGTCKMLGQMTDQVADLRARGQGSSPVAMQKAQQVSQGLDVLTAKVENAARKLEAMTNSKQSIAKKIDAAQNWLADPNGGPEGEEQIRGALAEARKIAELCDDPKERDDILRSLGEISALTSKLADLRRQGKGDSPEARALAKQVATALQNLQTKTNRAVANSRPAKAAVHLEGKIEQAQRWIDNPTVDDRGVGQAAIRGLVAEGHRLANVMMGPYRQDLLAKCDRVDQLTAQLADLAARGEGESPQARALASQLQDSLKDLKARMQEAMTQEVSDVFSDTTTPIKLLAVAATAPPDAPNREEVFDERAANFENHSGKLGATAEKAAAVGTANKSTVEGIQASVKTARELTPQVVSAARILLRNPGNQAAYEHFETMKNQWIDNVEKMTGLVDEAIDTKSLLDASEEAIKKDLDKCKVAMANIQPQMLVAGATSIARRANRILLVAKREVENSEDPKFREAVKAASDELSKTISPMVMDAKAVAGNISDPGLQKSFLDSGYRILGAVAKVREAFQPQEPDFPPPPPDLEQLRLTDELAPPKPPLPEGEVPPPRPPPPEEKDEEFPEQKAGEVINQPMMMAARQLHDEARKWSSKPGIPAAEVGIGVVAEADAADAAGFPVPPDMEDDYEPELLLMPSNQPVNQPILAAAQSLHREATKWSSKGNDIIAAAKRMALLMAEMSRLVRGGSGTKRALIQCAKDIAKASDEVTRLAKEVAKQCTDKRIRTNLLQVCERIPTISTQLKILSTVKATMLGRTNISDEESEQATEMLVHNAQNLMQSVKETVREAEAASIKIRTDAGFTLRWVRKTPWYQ

How the values were obtained:
Assay in all cases: log2 fold change, soluble protein after heating vs DMSO (PISA); higher = thermal stabilisation; K562 lysate, 10 uM; active = over 0.2 and 3.5 SD of the protein, either way, in both replicates (recomputed)
[1] = compound: C#Cc1cccc(Nc2ncnc3cc(OCCOC)c(OCCOC)cc23)c1 [erlotinib]
Method in brief: (§1)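 Log-two fold change in thermal stability relative to solvent controls is reported from duplicates. For each sample, crude K562 extract from dounce-homogenised pellets in PBS pH 7.4 with 1 mM MgCl2, at 1 mg/mL protein, was treated with 10 μM compound for 30 min. Aliquots heated for 3 min across 48°C-58°C were pooled, brought to 0.5% NP-40 at 4°C and cleared at 21,000xg for 90 min. The supernatant was quantified by TMTpro 16plex LC-MS/MS with channel sums equalised.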

[2] = compound: C/C(=N\NC(=O)C1=CC(=CC=C1)S(=O)(=O)N2CCOCC2)/C3=C(C=CC(=C3)Cl)O
Method in brief: as §1

[3] = compound: C1=CC(=CC=C1C2=NC3=C(N2)C=C(C=C3)C(=O)N)OC4=CC=C(C=C4)Cl
Method in brief: as §1

[4] = compound: C1=CC2=C(C=CC(=C2)/C=C\3/C(=O)NC(=NCC4=CC=CS4)S3)N=C1
Method in brief: as §1

[5] = compound: C1=CC2=NC=CN=C2C=C1/C=C/3\C(=O)NC(=O)S3
Method in brief: as §1

[6] = compound: C1=CC=C(C=C1)C2=NC(=C(N2)C3=CC=NC=C3)C4=CC(=C(C=C4)Cl)O
Method in brief: as §1

[7] = compound: C1=CC=C2C(=C1)C3=NNC4=CC=CC(=C43)C2=O
Method in brief: as §1

[8] = compound: C1CCN(C1)C(=O)NC2=CC=CC(=C2)NC3=NC=C(C(=N3)NCCC4=CN=CN4)Br
Method in brief: as §1

[9] = compound: C1CN(CCC1(CC2=CC=C(C=C2)Cl)N)C3=NC=NC4=C3C=CN4
Method in brief: as §1

[10] = compound: C1COCCN1CCN2C3=CC=CC=C3N=C2NC(=O)C4=CC(=CC=C4)[N+](=O)[O-] [IRAK-1-4 Inhibitor I]
Method in brief: as §1

[11] = compound: C=CC(=O)N1CCC[C@@H](n2nc(-c3ccc(Oc4ccccc4)cc3)c3c(N)ncnc32)C1 [ibrutinib]
Method in brief: as §1

[12] = compound: CC(=O)c1cnc2ccc(-c3cc(Cl)c(O)c(Cl)c3)nc2c1N[C@H]1CC[C@H](CN(C)C)CC1
Method in brief: as §1

[13] = compound: CC(C)(C)Cn1c(N)nc2ccc(-c3[nH]c(C(C)(C)C)nc3-c3ccc(F)cc3)nc21 [ralimetinib]
Method in brief: as §1

[14] = compound: CC(C)(O)CC(=O)NCCn1ccc2ncnc(Nc3ccc(Oc4cccc(C(F)(F)F)c4)c(Cl)c3)c21
Method in brief: as §1

[15] = compound: CC(C)C1=C2N=C(C=C(N2N=C1)NCC3=CC=CC=C3)NCCCCCCN
Method in brief: as §1

[16] = compound: CC1=C(C(CC(=O)N1)C2=CC=C(C=C2)C(F)(F)F)C(=O)NC3=C(C=C4C(=C3)C=NN4)F
Method in brief: as §1

[17] = compound: CC1=C(C2=C(C=C1)C(=O)C3=CC=CC=C3N2CCCN)C
Method in brief: as §1

[18] = compound: CC1=C(C=C(C=C1)NC(=O)C2=CC(=CC=C2)C(C)(C)C#N)NC3=CC4=C(C=C3)N=CN(C4=O)C
Method in brief: as §1

[19] = compound: CC1=C(C=C(C=C1)NC(=O)C2=CC(=CC=C2)N(C)C)NC(=O)C3=CC=C(C=C3)O
Method in brief: as §1

[20] = compound: CC1=CC=C(C=C1)SC2=C3C=C(SC3=CN=C2)C(=O)N
Method in brief: as §1

Measured: log2 fold change

USP47 isoform 4 (UniProt Q96K76)
inactive: [1] -0.011 | [2] -0.012 | [3] -0.002 | [4] 0.002 | [5] -0.016 | [6] 0.002 | [7] 0.004 | [8] -0.012 | [9] -0.006 | [10] -0.012 | [11] 0.014 | [12] 0.009 | [13] 0.017 | [14] 0.016 | [15] -0.01 | [16] -0.006 | [17] -0.025 | [18] -0.001 | [19] 0.002 | [20] 0.005

UTP6 (UniProt Q9NYH9)
inactive: [1] 0.004 | [2] -0.001 | [3] -0.035 | [4] 0.109 | [5] 0.185 | [6] 0.012 | [7] -0.105 | [8] -0.016 | [9] 0.017 | [10] -0.026 | [11] 0.171 | [12] 0.114 | [13] 0.031 | [14] -0.065 | [15] 0.255 | [16] 0.043 | [17] -0.064 | [18] 0.022 | [19] 0.062 | [20] -0.26

VAMP3 (UniProt Q15836)
inactive: [1] -0.007 | [2] -0.034 | [3] 0.073 | [4] 0.002 | [5] 0.015 | [6] -0.044 | [7] -0.105 | [8] 0.018 | [9] -0.025 | [10] 0.067 | [11] -0.044 | [12] -0.006 | [13] 0.043 | [14] 0.056 | [15] 0.012 | [16] 0.03 | [17] 0.013 | [18] 0.164 | [19] -0.027 | [20] 0.002

UFL1 (UniProt O94874)
inactive: [1] -0.003 | [2] -0.009 | [3] 0.029 | [4] 0.033 | [5] 0.021 | [6] -0.018 | [7] 0.005 | [8] -0.016 | [9] 0.032 | [10] -0.007 | [11] -0.033 | [12] 0.011 | [13] -0.015 | [14] -0.002 | [15] -0.035 | [16] -0.007 | [17] 0.053 | [18] -0.016 | [19] 0.039 | [20] -0.042

UHRF1BP1L (UniProt A0JNW5)
inactive: [1] 0.03 | [2] -0.001 | [3] 0 | [4] -0.033 | [5] 0.003 | [6] -0.006 | [7] -0.02 | [8] -0.013 | [9] 0.017 | [10] 0.029 | [11] 0.031 | [12] 0.046 | [13] 0.001 | [14] -0.008 | [15] -0.005 | [16] 0.105 | [17] -0.01 | [18] 0.08 | [19] 0.011 | [20] -0.046

2 neighbouring records already listed:
UFL1 (UniProt O94874)
inactive: [1] -0.003 | [2] -0.009 | [3] 0.029 | [4] 0.033 | [5] 0.021 | [6] -0.018 | [7] 0.005 | [8] -0.016 | [9] 0.032 | [10] -0.007 | [11] -0.033 | [12] 0.011 | [13] -0.015 | [14] -0.002 | [15] -0.035 | [16] -0.007 | [17] 0.053 | [18] -0.016 | [19] 0.039 | [20] -0.042

UHRF1BP1L (UniProt A0JNW5)
inactive: [1] 0.03 | [2] -0.001 | [3] 0 | [4] -0.033 | [5] 0.003 | [6] -0.006 | [7] -0.02 | [8] -0.013 | [9] 0.017 | [10] 0.029 | [11] 0.031 | [12] 0.046 | [13] 0.001 | [14] -0.008 | [15] -0.005 | [16] 0.105 | [17] -0.01 | [18] 0.08 | [19] 0.011 | [20] -0.046

Following part.

USP14 (UniProt P54578)
inactive: [1] 0.013 | [2] -0.023 | [3] -0.002 | [4] 0.007 | [5] 0 | [6] 0.005 | [7] -0.021 | [8] -0.01 | [9] -0.001 | [10] -0.008 | [11] 0.002 | [12] -0.003 | [13] -0.024 | [14] -0.014 | [15] 0.008 | [16] -0.017 | [17] 0.001 | [18] -0.008 | [19] -0.001 | [20] -0.01

VAMP4 (UniProt O75379)
inactive: [1] 0.005 | [2] -0.018 | [3] -0.005 | [4] 0.006 | [5] 0.037 | [6] -0.003 | [7] -0.006 | [8] 0.004 | [9] -0.098 | [10] 0.019 | [11] -0.053 | [12] 0.011 | [13] 0.047 | [14] 0.016 | [15] -0.011 | [16] 0.166 | [17] -0.005 | [18] 0.063 | [19] -0.042 | [20] 0.038

VCL (UniProt P18206)
inactive: [1] -0.019 | [2] -0.03 | [3] 0.005 | [4] -0.004 | [5] -0.002 | [6] -0.011 | [7] 0.012 | [8] 0.011 | [9] -0.008 | [10] 0.006 | [11] 0.006 | [12] -0.003 | [13] -0.013 | [14] -0.023 | [15] -0.018 | [16] -0.005 | [17] -0.003 | [18] 0.027 | [19] -0.014 | [20] -0.024
